# Laboratory results taken from PubChem BioAssay AID1347423 (Functional Genomics Laboratory (NCATS/FGL), 2020).
# The whole screen tested about 52,000 sequences, of which about 210 (0.4%) were called active.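 How the source made its calls: active means gene whose silencing raises cell survival under the drug, median off-target-corrected z-score across its silencing RNAs 2 or more; inactive means the rest.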 This is one part of the list.
# Assay: Resistance to Poly (ADP-Ribose) Polymerase inhibitor: Gene Identification via Genome-wide siRNA Screen
# Conditions: mouse BRCA2 R2336H ES cells, olaparib, CellTiter-Glo viability; active compounds read high
# Procedure, shortened: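 Genome-wide siRNA screen (3 siRNAs/gene, 20 nM) in mouse ES cells carrying hypomorphic BRCA2 R2336H; olaparib 500 nM added 48 h post-transfection, CellTiter-Glo viability 72 h later. Normalized to plate-median negative control; MAD z-scores, gene median, seed-adjusted.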
row,Sequence,z-score
1,CCCUCAAAACCUAUGCCUUTT against Ugt1a2,inactive: -0.0873
2,GCACAAGGACACGGAAUACTT against Npr3,inactive: -1.96
3,GCAACCUGUCAUUUUGUGATT against Olfr1134,inactive: -0.249
4,CCUUAUAUCUUGGUAUACGTT against Bmp3,inactive: 1.03
5,GGAUUGAGGGUCAAAUAACTT against Fkbp8,inactive: -0.326
6,CCUGAUCUCUUGCUACACCTT against Trpm3,inactive: -0.274
7,GCGCAUUGUGUUCUGGUCUTT against Zswim4,inactive: -1.04
8,GGAAGUUUCUGAGACUGUATT against Epx,inactive: -1.99
9,CCGGCUUCACCGAAUACUUTT against B930076A02,inactive: -1.05
10,GCCUUGUUACAAAUAGUCGTT against Tcf12,inactive: 1.17
11,GGUUGUUCUUGUCAGUAUUTT against Serpinb6c,inactive: 0.256
12,GGCAACACGAUGCAGCAGUTT against D0HXS9928E,inactive: 0.0401
13,GGAACACAGAGGUAAAAGGTT against Olfr446,inactive: -0.14
14,GGCUAUGCAUCUCCUGUCATT against Gata4,inactive: -2.06
15,GGAAAGACUGCCUAUUCUGTT against Adfp,inactive: -0.535
16,GGGUGUUCCUAUCUCCUUCTT against Angptl6,inactive: 0.00721
17,GGAAGAUCAUUGAUAACGCTT against 2810465F10Rik,inactive: -0.697
18,GGUAGAGUUGGCUUUAUGGTT against Rhoa,inactive: -0.062
19,GGGAAAUAAGUCUCGAACGTT against Kif13a,inactive: 1.35
20,GCUGAAUUCAUUCAUAGCCTT against Cyp2d26,inactive: 0.925
21,GGGCUUUUGUUUUGAAACATT against Smc1l2,inactive: -1.14
22,CCCAUAACCAGAAUUAAAGTT against 4930511H01Rik,inactive: -0.176
23,CCUAAAAUCCACCAAGCUUTT against Btbd4,inactive: -2.09
24,GGUACAAGAGAUUUGAAAATT against AV249152,inactive: -0.438
25,GGUUCCACUCAACUGAAGATT against Actl7b,inactive: 2.26
26,GGAUGAGGAUGACUUUGAGTT against Tnk2,inactive: -3.09

row,Sequence,z-score
1,CCUAUCUUCCUGAAUACAUTT against Aqp7,inactive: 0.231
2,GGCUGCUCAAAAAGAACAUTT against Kif21b,inactive: -1.16
3,GUGCUACUGCCUGCCAUUCTT against Sprrl5,inactive: 0.157
4,GGUCAUCUCAGACCUCCUCTT against Pde6a,inactive: 2.45
5,GGGCUUUAAGGAAAAGUUUTT against 2010110M21Rik,inactive: -0.358
6,CCCAAUACAUGAGCUUCUGTT against Ch25h,inactive: 0.36
7,GGCUUUUCUAUGUUUGAGATT against Pde6d,inactive: 0.751
8,GGCUCUGAACGUAUCCUACTT against Card10,inactive: 0.747
9,GGUGGCUAGUUUUAUUACUTT against Thtpa,inactive: 0.685
10,GGGCUCCUGUCUAAAGGAATT against Cd200r2,inactive: -0.488
11,CCACUGCUUAAUCCUAUGATT against Olfr741,inactive: -0.624
12,GCUCUCAUUAGCAUUAUCGTT against Gria1,active: -0.366
13,CCCUAGUUUAUCUCCGGAUTT against Lhx1,inactive: 1.44
14,CUACCUACUCCAUGUGGUGTT against MGI:1915703,inactive: -0.426
15,GCUACAUUUCUACUCAAAGTT against Dkk2,inactive: 0.866
16,GCCCUAGUGAGAGGAAACCTT against 4930538K18Rik,inactive: 0.45
17,GACCCUAGCUCACUUUGGUTT against LOC433873,inactive: 1.19
18,GCUUGAGGAAUUUACGGCGTT against Cetn3,inactive: -0.0954
19,CGAGAUUUAUAUGGUGUCUTT against 6530406M24Rik,inactive: -1.19
20,CUGGGUUACUUCACUAAGGTT against MGC117568,inactive: 3.29
21,GGAAGGUGAAGCCAGUUUCTT against AI429613,inactive: 0.205
22,GCACUAAUCAAUAUCUAGGTT against Klf8,inactive: 0.674
23,GCUAAUACGAUUUACUUUGTT against Cntn6,inactive: 0.131
24,GCAGAUGAAUCCAUUCUGATT against 8430415E04Rik,inactive: -0.588
25,CGCACUGAGUCUGAAUAUGTT against Hibch,inactive: -0.231
26,GCUAAUAUUAGGCUACAUCTT against Evi2a,inactive: -1.06

row,Sequence,z-score
1,GGAUGCUAGACUAAUACUATT against Mftc,inactive: -0.233
2,CCCUCUUAGUAACUGGCUCTT against D330022A01Rik,inactive: -0.836
3,GGUGUUGUUUCGAAUUAUUTT against Xrn1,inactive: -0.117
4,CGUGGACGGAAAUGUUAAUTT against Trpc3,inactive: -0.403
5,GGAAAAAAAAAUGUCCUUGTT against Rit2,inactive: 0.838
6,GCUACGUUUACUGACCACATT against Bcat1,inactive: 1.07
7,CGGCUUCCCAAAAGAUGUGTT against Aire,inactive: 0.465
8,GGGAUAAGAGAGCAAUUAATT against Dub1,inactive: 0.859
9,GGAGCUAUGGCUCAUACAUTT against Spire1,inactive: -0.517
10,GGGCACAUAUAAACUUAUUTT against Dnaic1,inactive: 0.258
11,CGUACUUGCCUAUGUAUAGTT against A830031A19Rik,inactive: -1.67
12,GCGCAUACCUGUGUGUCAUTT against Tyk2,inactive: 1.26
13,GGUUUUUGUGUGGAUCUAUTT against Tloc1,inactive: -1.21
14,CGGAUGAAAGUGUCUUGAUTT against Slbp,inactive: -0.41
15,GGACCAGCUUUUUAAUGUUTT against Prpsap2,inactive: -0.13
16,GGAGCUGUUUCUGUUAUUGTT against F8a,inactive: 1.64
17,GGAAGAACACAAAACUGACTT against Cdkn1b,inactive: 0.326
18,CGUGAAUUAUGGAAAUUAGTT against A630033H20Rik,inactive: -0.00288
19,GCAUCUUAUUUAAUUCCCATT against Mrpl39,inactive: -0.94
20,CCUUUCAGCUUACAUUUAATT against Cyp4a12,inactive: 0.599
21,GCUAUGUAUCCCACCAAAATT against Enpp3,inactive: -0.0183
22,GGUAACAAUCACCAUAUUCTT against 1700029F12Rik,inactive: 0.224
23,GCCACGGAGAUAGCAGUUUTT against Hmgcll1,inactive: 0.422
24,CCGUGUGGAGGUACCCAUUTT against Zp3,inactive: 2.34
25,CGAGAUGAAAUAUACAGAUTT against C030046M14Rik,inactive: 0.139
26,GGAUGAGGCCAUCCUCAAGTT against Rps6ka1,inactive: 0.909

# Shown bar-delimited: part of the list above.
row | Sequence | z-score
1 | GGAUGCUAGACUAAUACUATT against Mftc | inactive: -0.233
2 | CCCUCUUAGUAACUGGCUCTT against D330022A01Rik | inactive: -0.836
7 | CGGCUUCCCAAAAGAUGUGTT against Aire | inactive: 0.465
19 | GCAUCUUAUUUAAUUCCCATT against Mrpl39 | inactive: -0.94
20 | CCUUUCAGCUUACAUUUAATT against Cyp4a12 | inactive: 0.599

# (listing goes on)

row,Sequence,z-score
1,GGAUCUGAAAUGAACCAGCTT against Rpl38,inactive: -2.47
2,GCUCAUAAGUUUCUAAGGATT against Rab22a,inactive: -0.0876
3,CCUAACAACCGCUCUUGUGTT against Efemp2,inactive: -0.112
4,GGCAACUCUCAAUUGCACATT against Olfr1325,inactive: 1.35
5,GGAGCAUCUAUGAUUACAATT against 2400003L07Rik,inactive: -0.298
6,GCCAAGGAGAUCAUAAAAUTT against Klk14,inactive: -0.541
7,CCCUUCUGUCUGUCUGAAGTT against Olfr247,inactive: -0.281
8,GCUUCAGGAGCUCUACUGUTT against Catsper3,inactive: 0.398
9,GGGAUUUCCUUCAUCAUUATT against Gtf2i,inactive: 1.41
10,GGAUAUAACUGCUAUGGUUTT against Rhebl1,inactive: 1.21
11,GGCCGGAGCAUCACAAUUUTT against Vamp1,inactive: -1.75
12,GCUCCAACAAGGCAUAAAATT against 2810028N01Rik,inactive: -0.635
13,GGCUGUUUGGCUUGUUUAATT against Golga7,inactive: -0.501
14,GCACUAGCACACACGAUUUTT against Upp1,inactive: -0.804
15,CCCUUUAUGAUAGGUUUUATT against V1rj3,inactive: -0.676
16,GGAAUGUUGACUUAAAGGATT against Crot,inactive: -0.838
17,GGACAAGACCAGCAAAUACTT against Six6,inactive: -0.149
18,GGAAGACUACGAUCAAUGGTT against Pafah2,inactive: 1.1
19,GGCUUUGUAUUUGUUUAUGTT against Gdap1,inactive: 1.38
20,CCCGAAUUGACAACAUCGUTT against Olfr855,inactive: -0.5
21,GGCACUGGAAAUAAAACCCTT against S100a14,inactive: 0.348
22,GCGACGGCUUAUAUGGGUUTT against 4930504O13Rik,inactive: -0.144
23,GGAAUAACUUUCCAUACCATT against BC011426,inactive: -0.0291
24,CGCCAUGAAUGUGAUUGGATT against Myo1e,inactive: -0.718
25,GGAUCAGAUAAAGCAAAUUTT against Eif3s9,inactive: -3.16
26,UAUGGGCCCUUGUCCUCUGTT against Gpr40,inactive: -0.544
